Assay results as given in article doi:10.1101/2024.04.30.591959.
Results are given in words; binding and its absence hold for the method and conditions named.

Biological target: human propionyl-CoA carboxylase α subunit (human (endogenous in Expi 293F)) (UniProt P05165)
Test: cryo-EM structure

binding: no binding
B1: human propionyl-CoA carboxylase α subunit (protein, UniProt P05165 53-728)
chain: SVGYDPNEKTFDKILVANRGEIACRVIRTCKKMGIKTVAIHSDVDASSVHVKMADEAVCVGPAPTSKSYLNMDAIMEAIKKTRAQAVHPGYGFLSENKEFARCLAAEDVVFIGPDTHAIQAMGDKIESKLLAKKAEVNTIPGFDGVVKDAEEAVRIAREIGYPVMIKASAGGGGKGMRIAWDDEETRDGFRLSSQEAASSFGDDRLLIEKFIDNPRHIEIQVLGDKHGNALWLNERECSIQRRNQKVVEEAPSIFLDAETRRAMGEQAVALARAVKYSSAGTVEFLVDSKKNFYFLEMNTRLQVEHPVTECITGLDLVQEMIRVAKGYPLRHKQADIRINGWAVECRVYAEDPYKSFGLPSIGRLSQYQEPLHLPGVRVDSGIQPGSDISIYYDPMISKLITYGSDRTEALKRMADALDNYVIRGVTHNIALLREVIINSRFVKGDISTKFLSDVYPDGFKGHMLTKSEKNQLLAIASSLFVAFQLRAQHFQENSRMPVIKPDIANWELSVKLHDKVHTVVASNNGSVFSVEVDGSKLNVTSTWNLASPLLSVSVDGTQRTVQCLSREAGGNMSIQFLGTVYKVNILTRLAAELNKFMLEKVTEDTSSVLRSPMPGVVVAVSVKPGDAVAEGQEICVIEAMKMQNSMTAGKTGTVKSVHCQAGDTVGEGDLLVELE
modifications: biotin covalently linked to K694 (AMKM motif of the BCCP domain)
